# Measurements published in the supplement of paper PMC4604168 (melanoma cell lines).
# The list shows a part of the results. Repeats are few or missing, and single values can be far off.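 Cells were imaged in 1,536-well plates, and nuclei stained with an antibody against cleaved PARP were counted against all DNA-stained nuclei to give the apoptosis fraction. Screening doses were chosen to leave most cells alive, and resting and induced cleaved-PARP levels differ strongly between cell lines.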
# Columns and labels:
# Assay in all cases: cleaved PARP positive nuclei fraction relative to DMSO control; melanoma cells; higher = more apoptosis
# Details in all cases: library dose: low library concentration; 72 h
# [1] = test system: WM115
# [2] = test system: WM1716
# [3] = test system: WM1745
# [4] = test system: WM3526
# [5] = test system: WM3619
# [6] = test system: WM451Lu
Compound,cleaved PARP positive nuclei fraction [1],cleaved PARP positive nuclei fraction [2],cleaved PARP positive nuclei fraction [3],cleaved PARP positive nuclei fraction [4],cleaved PARP positive nuclei fraction [5],cleaved PARP positive nuclei fraction [6]
"CC1(C)CCC(c2ccc(Cl)cc2)=C(CN2CCN(c3ccc(C(=O)NS(=O)(=O)c4ccc(N[C@H](CCN5CCOCC5)CSc5ccccc5)c(S(=O)(=O)C(F)(F)F)c4)cc3)CC2)C1 + Cc1cc([N+](=O)[O-])ccc1NS(=O)(=O)c1cc(Cl)ccc1Cl [FH535] (first compound 0.4 µM, partner dose 1 µM)",642%,254%,519%,258%,98.5%,146%
"CC1(C)CCC(c2ccc(Cl)cc2)=C(CN2CCN(c3ccc(C(=O)NS(=O)(=O)c4ccc(N[C@H](CCN5CCOCC5)CSc5ccccc5)c(S(=O)(=O)C(F)(F)F)c4)cc3)CC2)C1 + C[C@@H]1CCN(C(=O)CC#N)C[C@@H]1N(C)c1ncnc2[nH]ccc12 [CP690550] (first compound 0.4 µM, partner dose 1 µM)",73.4%,361%,2240%,77.5%,133%,132%
"CC(=O)O[C@@]12CO[C@@H]1C[C@H](O)[C@@]1(C)C(=O)[C@H](O)C3=C(C)[C@@H](OC(=O)[C@H](O)[C@@H](NC(=O)OC(C)(C)C)c4ccccc4)C[C@@](O)([C@@H](OC(=O)c4ccccc4)[C@H]21)C3(C)C [Docetaxel] + Cn1nnc2c(C(N)=O)ncn2c1=O [temozolomide] (first compound 0.0001 µM, partner dose 2 µM)",762%,214%,192%,463%,160%,162%
"Cn1cnc2c(F)c(Nc3ccc(Br)cc3Cl)c(C(=O)NOCCO)cc21 [selumetinib] + CCCCCCCCc1ccc(CCC(N)(CO)CO)cc1 [fingolimod] (first compound 0.015 µM, partner dose 2 µM)",198%,74.4%,119%,112%,122%,824%
"NC(=O)c1ccc(N(C(N)=O)c2c(F)cccc2F)nc1-c1ccc(F)cc1F + Cc1nc(Nc2ncc(C(=O)Nc3c(C)cccc3Cl)s2)cc(N2CCN(CCO)CC2)n1 [dasatanib] (first compound 0.4 µM, partner dose 0.004 µM)",140%,31.1%,120%,395%,104%,130%
"CS(=O)(=O)c1ccc(C(=O)Nc2ccc(Cl)c(-c3ccccn3)c2)c(Cl)c1 [vismodegib] + O=C(Nc1ccccc1)c1cc([N+](=O)[O-])ccc1Cl [GW9662] (first compound 1 µM, partner dose 2 µM)",51.1%,50.3%,80.4%,130%,150%,65.1%
"CCN(CC)CCNC(=O)c1c(C)[nH]c(/C=C2\C(=O)Nc3ccc(F)cc32)c1C [sunitinib] + O=C(O)[C@@H]1[O][Sb](=[O])([O][Sb]2(=[O])[O][C@H]([C@H](O)CO)[C@H](O)[C@H](C(=O)O)[O]2)[O][C@H]([C@H](O)CO)[C@@H]1O [stibogluconate] (first compound 0.4 µM, partner dose 2 µM)",28.1%,51.7%,110%,45.3%,90.3%,39.3%
"NC1(c2ccc(-c3nc4ccn5c(=O)[nH]nc5c4cc3-c3ccccc3)cc2)CCC1 + Oc1cc(-c2nc(-c3ccccc3)[nH]c2-c2ccncc2)ccc1Cl [L779450] (first compound 0.4 µM, partner dose 0.2 µM)",51.1%,30.8%,79.6%,476%,117%,136%
"CCN(CC)CCNC(=O)c1c(C)[nH]c(/C=C2\C(=O)Nc3ccc(F)cc32)c1C [sunitinib] + CCCCCCCCCCCC1=C(O)C(=O)C=C(O)C1=O [Embelin] (first compound 0.4 µM, partner dose 1.2 µM)",90%,62.3%,94.4%,229%,62.9%,197%
"Cn1cnc2c(F)c(Nc3ccc(Br)cc3Cl)c(C(=O)NOCCO)cc21 [selumetinib] + C#Cc1cccc(Nc2ncnc3cc(OCCOC)c(OCCOC)cc23)c1 [erlotinib] (first compound 0.015 µM, partner dose 0.8 µM)",138%,405%,683%,59.8%,134%,11.8%
"Cn1cnc2c(F)c(Nc3ccc(Br)cc3Cl)c(C(=O)NOCCO)cc21 [selumetinib] + CC(C)(C)c1cnc(CSc2cnc(NC(=O)C3CCNCC3)s2)o1 [SNS-032] (first compound 0.015 µM, partner dose 0.01 µM)",145%,153%,95.2%,80.5%,121%,97.1%
"Cn1cnc2c(F)c(Nc3ccc(Br)cc3Cl)c(C(=O)NOCCO)cc21 [selumetinib] + C[C@]1(c2nc3c(C(N)=O)cccc3[nH]2)CCCN1 [Veliparib] (first compound 0.015 µM, partner dose 1.4 µM)",153%,271%,103%,75.9%,109%,33.7%

# Reformatted: entries from further up
Compound	cleaved PARP positive nuclei fraction [1]	cleaved PARP positive nuclei fraction [2]	cleaved PARP positive nuclei fraction [3]	cleaved PARP positive nuclei fraction [4]	cleaved PARP positive nuclei fraction [5]	cleaved PARP positive nuclei fraction [6]
CC1(C)CCC(c2ccc(Cl)cc2)=C(CN2CCN(c3ccc(C(=O)NS(=O)(=O)c4ccc(N[C@H](CCN5CCOCC5)CSc5ccccc5)c(S(=O)(=O)C(F)(F)F)c4)cc3)CC2)C1 + Cc1cc([N+](=O)[O-])ccc1NS(=O)(=O)c1cc(Cl)ccc1Cl [FH535] (first compound 0.4 µM, partner dose 1 µM)	642%	254%	519%	258%	98.5%	146%
NC(=O)c1ccc(N(C(N)=O)c2c(F)cccc2F)nc1-c1ccc(F)cc1F + Cc1nc(Nc2ncc(C(=O)Nc3c(C)cccc3Cl)s2)cc(N2CCN(CCO)CC2)n1 [dasatanib] (first compound 0.4 µM, partner dose 0.004 µM)	140%	31.1%	120%	395%	104%	130%
